Experimental findings from the odorant receptor screen of Mainland et al. (2015) are described below.

The structures appear in SMILES notation. Several values for one entry are separate records, joined by “and”; a condition that tells them apart may be missing. Equal entries are not always repeated. The list shows a part of the results. Single wells; the ratio to wells without odorant was worked out here, and repeats agree poorly.

The subject of the test is OR10A4 R262Q clone 1538. Description: odorant receptor activation (CRE luciferase / Renilla) (fold of no-odor wells); higher = more activation. The following applies: 100 µM.
With `CC1CCC(C(C)C)C(O)C1` (single isomer, unassigned; (-)) [(-)-menthol], the odorant receptor activation came out at 1.19.
For `C=CCSCC=C` [diallyl sulfide] the value was 1.53; for `CC(C)=CCCC(C)=CC=O` [citral], 0.877; for `COc1cc(C)ccc1O` [2-methoxy-4-methylphenol], 1.01.
Then `CC(=O)OC(C)(C)C1CC=C(C)CC1` (stereo unspecified) [terpinyl acetate], with 1.48.
For `CCCCCCCCC=O` [nonyl aldehyde] the value was 1.25.
In the case of `O=C1CCCCCCCCCCCC(=O)OCCO1` [ethylene brassylate], the odorant receptor activation amounted to 1.58.
Regarding `CCCCCCCCOC(C)=O` [octyl acetate], the odorant receptor activation worked out at 0.975.
Then `c1ccc(Oc2ccccc2)cc1` [diphenyl ether], with 1.22.
For the molecule `CCCCCCCC=CC=O` [2-decenal], the odorant receptor activation is 1.25.
Then `CC(C)C(=O)O` [isobutyric acid], with 1.47 and 0.938.
As for `CCCCCCOC(=O)CCC` [hexyl butyrate], the odorant receptor activation was 1.02 and 1.19.
Take `C=CCc1ccc(O)c(OC)c1` [eugenol]: the odorant receptor activation came out at 1.59.
Then `CC(=O)OC1CC2CCC1(C)C2(C)C` (stereo unspecified) [isobornyl acetate], with 0.728 and 1.25.
With `CC(C)C=O` [isobutyraldehyde], the odorant receptor activation was 0.959 and 1.36.
`CCCCCCCCCCC=O` [undecanal]: the odorant receptor activation was found to be 1.1.
Turning to `CC1=CCC(C(C)(C)O)CC1` (stereo unspecified) [terpineol], the odorant receptor activation turned out to be 1.13.
For `COC(=O)c1ccccc1O` [methyl salicylate] the value was 0.989; for `C=C(C)C1CC=C(C)C(=O)C1` (stereo unspecified) [r-carvone], 0.975.
For `CCCCO` [1-butanol] the value was 1.09.
For `CCC1(O)C2(C)CCC(C2)C1(C)C` (stereo unspecified) [2-ethylfenchol] the value was 1.11.
